Part of at least one peptide drawing is inferred or uncertain, most often the ends. Square brackets hold non-standard residues; d marks the D form. Peptide text beside a SMILES is read from it. * marks the point of attachment. Benzoyl(4-OMe) = COc1ccc(C(=O)*)cc1
Columns and labels:
[1] = test system: heat-induced edema in the anesthetized rat's paw; assay: Suppression of heat-induced edema in the anesthetized rat's paw (anti-inflammatory); format: in vivo
[2] = test system: dispersion of melanin initiated by norepinephrine, serotonin, vasotocin, PACAP-27; assay: Selectivity: melanin dispersion initiated by other ligands in melanophores; format: cell-based, Xenopus laevis; settings: same experimental conditions as the MCR assay

CC[C@H](C)[C@H](NC(=O)[C@H](CCCNC(=N)N)NC(=O)[C@H](CCCNC(=N)N)NC(=O)c1ccc(OC)cc1)C(=O)N[C@@H](CCCNC(=N)N)C(=O)N1CCC[C@H]1C(=O)N[C@@H](CCCCN)C(=O)N[C@H](CC(C)C)C(N)=O [SQW-1, p-anisoyl-Arg-Arg-Ile-Arg-Pro-Lys-D-Leu-amide] ({Benzoyl(4-OMe)}-RRIRPK[dL]-NH2)
anti-edema activity ([1]; in words): active as anti-edema agents
Anti-Inflammatory ED50 ([1]; suppression of heat-induced edema in the anesthetized rat's paw, i): 0.21 µmol/kg
inhibition of melanin dispersion initiated by norepinephrine, serotonin, and vasotocin [2]: not inhibited

— patent publication US6953779B2, “Melanocortin receptor antagonists and modulations of melanocortin receptor activity” (The Regents of the University of California, priority 1998, dated 2005)
